Test results as given in publication doi:10.1101/632331.
No constants are given. Whether binding was seen depends on the method and setting. In cells and extracts the contact can be indirect. Tags and fused reporters may be left off the sequences shown.

By UniProt entry, the sequences of proteins in these tests, tags left out.
UniProt Q16665: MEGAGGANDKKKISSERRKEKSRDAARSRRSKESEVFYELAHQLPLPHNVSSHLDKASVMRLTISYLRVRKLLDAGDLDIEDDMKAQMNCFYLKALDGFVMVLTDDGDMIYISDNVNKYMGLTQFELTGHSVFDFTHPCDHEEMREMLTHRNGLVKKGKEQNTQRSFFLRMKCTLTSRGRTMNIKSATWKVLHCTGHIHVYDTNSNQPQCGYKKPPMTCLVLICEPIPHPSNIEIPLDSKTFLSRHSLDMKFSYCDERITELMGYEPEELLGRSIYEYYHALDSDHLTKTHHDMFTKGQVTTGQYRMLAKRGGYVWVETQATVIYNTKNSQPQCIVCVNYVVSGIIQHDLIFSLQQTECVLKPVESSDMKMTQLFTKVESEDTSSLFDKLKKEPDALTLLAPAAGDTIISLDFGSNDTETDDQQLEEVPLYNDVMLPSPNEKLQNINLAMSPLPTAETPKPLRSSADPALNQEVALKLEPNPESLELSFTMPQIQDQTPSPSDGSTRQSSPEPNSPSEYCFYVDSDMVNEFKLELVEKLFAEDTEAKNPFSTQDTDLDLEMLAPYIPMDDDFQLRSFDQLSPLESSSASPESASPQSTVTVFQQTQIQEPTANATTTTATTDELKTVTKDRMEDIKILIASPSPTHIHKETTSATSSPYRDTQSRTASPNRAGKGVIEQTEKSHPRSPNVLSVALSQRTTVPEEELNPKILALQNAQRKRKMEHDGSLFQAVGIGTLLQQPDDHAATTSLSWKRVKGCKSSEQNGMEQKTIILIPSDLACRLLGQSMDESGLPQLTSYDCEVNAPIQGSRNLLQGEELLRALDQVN

Target: T1, FLAG-DDX28 (DEAD box protein 28, C-terminal 3x FLAG) (human) (UniProt Q9NUL7)
T1 sequence: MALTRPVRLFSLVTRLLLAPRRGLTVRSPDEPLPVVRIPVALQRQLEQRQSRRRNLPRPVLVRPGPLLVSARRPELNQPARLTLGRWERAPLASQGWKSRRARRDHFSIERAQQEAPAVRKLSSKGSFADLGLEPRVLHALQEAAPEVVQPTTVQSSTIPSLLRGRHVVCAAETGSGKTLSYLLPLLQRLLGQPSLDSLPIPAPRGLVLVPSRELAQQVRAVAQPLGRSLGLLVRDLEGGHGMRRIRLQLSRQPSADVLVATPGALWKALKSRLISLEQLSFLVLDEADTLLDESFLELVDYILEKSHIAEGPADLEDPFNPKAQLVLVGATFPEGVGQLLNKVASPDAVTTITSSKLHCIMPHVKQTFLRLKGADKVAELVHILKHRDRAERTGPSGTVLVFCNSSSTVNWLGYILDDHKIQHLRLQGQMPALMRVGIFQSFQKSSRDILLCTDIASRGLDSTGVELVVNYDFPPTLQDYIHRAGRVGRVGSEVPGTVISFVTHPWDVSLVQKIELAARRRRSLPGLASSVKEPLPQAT
Experiment: co-IP

HA-HIF-1α (from UniProt Q16665 1-826)
binding: no binding
